PubChem BioAssay AID1259293 | Sanger Institute – 2017
Screen: 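Follow-up of kinase siRNAs for synthetic lethality with three anchor drugs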 (follow-up of hits). Cell system: human NCI-H716 colorectal cancer cells. Reagents: single siRNA against human genes. Challenge: anchor drugs BYL719 at 1 µM, cetuximab at 5 µg/ml or trametinib at 10 nM, or DMSO vehicle alone. Read-out: 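For every anchor drug, viability versus control pool 2 (non-targeting) and a synergy score of drug with siRNA, each a replicate average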. Scale: synergy score with BYL719 and synergy score with cetuximab and synergy score with trametinib: higher = stronger synthetic lethal effect with drug. Active means: 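An siRNA is active if its synergy score is above 0.10 for one or more of the three anchor drugs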. Calls: active = synergy with at least one drug; inactive = no synergy with any drug.
In all, the deposit lists 160 reagents; shown is a random part of them. Over the whole deposit, 46 (29%) are marked active. 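The method behind the synergy score is not described; each call refers to one siRNA in a single cell line.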 Unmarked entries are inactive. The numbers tell different reagents against one gene apart. Further read-outs or replicates are left out here. Not given: the amount of reagent, the time to read-out.

SF3B1 (splicing factor 3b subunit 1) #1 gave synergy score with BYL719 = 0.0276; synergy score with cetuximab 0.0464; synergy score with trametinib -0.0512.
Against SF3B1 (splicing factor 3b subunit 1) #2, the values are synergy score with BYL719 = 0.115 (active); synergy score with cetuximab 0.209; synergy score with trametinib 0.0793.
Against SF3B1 (splicing factor 3b subunit 1) #3, the values are synergy score with BYL719 = -0.0244; synergy score with cetuximab -0.0735; synergy score with trametinib -0.336.
After knock-down of SF3B1 (splicing factor 3b subunit 1) #4 the results were synergy score with BYL719 = 0.0466; synergy score with cetuximab -0.00329; synergy score with trametinib -0.0715.
Against PLK1 (polo like kinase 1) #1, the entry reads synergy score with BYL719 = -0.0717; synergy score with cetuximab -0.315; synergy score with trametinib -0.0566.
PLK1 (polo like kinase 1) #2 showed synergy score with BYL719 = -0.108; synergy score with cetuximab -0.145; synergy score with trametinib -0.165.
Against PLK1 (polo like kinase 1) #3, the entry reads synergy score with BYL719 = 0.0227; synergy score with cetuximab 0.0809; synergy score with trametinib -0.101.
For PLK1 (polo like kinase 1) #4, the values are synergy score with BYL719 = 0.00305; synergy score with cetuximab 0.00815; synergy score with trametinib -0.0136.
PRAG1 (PEAK1 related, kinase-activating pseudokinase 1) #1 scored synergy score with BYL719 = 0.00814; synergy score with cetuximab -0.109; synergy score with trametinib -0.227.
With knock-down of PRAG1 (PEAK1 related, kinase-activating pseudokinase 1) #2, the record shows synergy score with BYL719 = 0.704 (active); synergy score with cetuximab -0.109; synergy score with trametinib -0.0962.
Silencing of PRAG1 (PEAK1 related, kinase-activating pseudokinase 1) #3 resulted in: synergy score with BYL719 = 0.0162 (active); synergy score with cetuximab -0.191; synergy score with trametinib 0.101.
PRAG1 (PEAK1 related, kinase-activating pseudokinase 1) #4 scored synergy score with BYL719 = 0.132 (active); synergy score with cetuximab -0.0544; synergy score with trametinib 0.133.
HUNK (hormonally up-regulated Neu-associated kinase) #1 showed synergy score with BYL719 = -0.197; synergy score with cetuximab 0.0287; synergy score with trametinib -0.0733.
HUNK (hormonally up-regulated Neu-associated kinase) #2 scored synergy score with BYL719 = -0.14 (active); synergy score with cetuximab -0.0936; synergy score with trametinib 0.147.
Knock-down of HUNK (hormonally up-regulated Neu-associated kinase) #3 resulted in: synergy score with BYL719 = -0.063; synergy score with cetuximab -0.263; synergy score with trametinib -0.0414.
Knock-down of HUNK (hormonally up-regulated Neu-associated kinase) #4 resulted in: synergy score with BYL719 = 0.125 (active); synergy score with cetuximab 0.031; synergy score with trametinib 0.111.

Copied from the list:
For “synergy score with cetuximab”, SF3B1 (splicing factor 3b subunit 1) #1 reads 0.0464
HUNK (hormonally up-regulated Neu-associated kinase) #4, synergy score with trametinib = 0.111 (active)

More records:
For IKBKB (inhibitor of nuclear factor kappa B kinase subunit beta) #1 the deposit lists synergy score with BYL719 = -0.179; synergy score with cetuximab -0.0952; synergy score with trametinib -0.303.
Depletion of IKBKB (inhibitor of nuclear factor kappa B kinase subunit beta) #2 gave: synergy score with BYL719 = 0.139 (active); synergy score with cetuximab -0.106; synergy score with trametinib -0.00929.
IKBKB (inhibitor of nuclear factor kappa B kinase subunit beta) #3 showed synergy score with BYL719 = -0.0669; synergy score with cetuximab -0.344; synergy score with trametinib -0.0298.
After knock-down of IKBKB (inhibitor of nuclear factor kappa B kinase subunit beta) #4, the screen gave synergy score with BYL719 = 0.0662 (active); synergy score with cetuximab -0.0831; synergy score with trametinib 0.102.
With knock-down of MAPK4 (mitogen-activated protein kinase 4) #1, the screen gave synergy score with BYL719 = -0.022 (active); synergy score with cetuximab 0.292; synergy score with trametinib 0.171.
Knock-down of MAPK4 (mitogen-activated protein kinase 4) #2 resulted in: synergy score with BYL719 = -0.369; synergy score with cetuximab -0.135; synergy score with trametinib -0.166.
After knock-down of MAPK4 (mitogen-activated protein kinase 4) #3, the record shows synergy score with BYL719 = -0.177; synergy score with cetuximab -0.121; synergy score with trametinib 0.0379.
Silencing of MAPK4 (mitogen-activated protein kinase 4) #4 gave: synergy score with BYL719 = -0.0563; synergy score with cetuximab -0.0236; synergy score with trametinib 0.0915.
